From US20050074485A1, “Anti-inflammatory/anti-microbial peptides for use in dialysis” (priority 2003, published 2005)
“Also recorded” adds a separate entry of the source. Not every detail of the peptide structures is certain; ends, links or a residue may be inferred. Where a SMILES comes first, the peptide text is derived from it. Bridges are numbered along the chain shown (N, C = ends). Roman numbers before positions name the chains, in order.

Tests used:
[1] = test system: C. albicans (clinical isolate); test: C. albicans viability by colony forming units; format: cell-based, Candida albicans; details: 10^−15 to 10^−4M, 2 hours at 37° C.
Protocol: C. albicans (clinical isolate) were obtained from the collection of the Department of Microbiology, Ospedale Maggiore di Milano. C. albicans were maintained on Sabouraud's agar slants and periodically transferred to Sabouraud's agar plates and incubated for 48 hours at 28° C. To prepare stationary growth phase yeast, a colony was taken from the agar plate and transferred into 30 ml Sabouraud-dextrose broth and incubated for 72 hours at 32° C. Cells were centrifuged at 100×g for 10 minutes and the pellet was washed twice with distilled water. Cells were counted and suspended in Hank's balanced salt solution (“HBSS”) to the desired concentration. […] C. albicans (I×10^6/ml in HBSS) was incubated in the presence or absence of α-MSH [1-13], KPV, (SEQ. ID NO.1) or the (“KPV dimer”) at concentrations in the range of 10^−15 to 10^−4M for 2 hours at 37° C. Cells were then washed in cold distilled water and diluted with HBSS to a concentration of 100 organisms/ml. One ml aliquots were dispensed on blood agar plates and incubated for 48 hours at 37° C. Organism viability was estimated from the number of colonies formed.
Fluconazole is a well established antifungal agent. […] The peptides and fluconazole were tested in concentrations of 10^−6 M. There were at least six replicates for each concentration of peptide.

[2] = test system: S. epidermidis; test: Preliminary in vitro test on blood agar plates; format: cell-based, Staphylococcus epidermidis; details: 24 hours at 37 degrees Celsius
[3] = test system: Gram negative bacteria, such as E. coli and Pseudomonas aeruginosa; test: Activity against Gram negative bacteria; format: cell-based
[4] = test system: Staphylococcus epidermidis; test: Saline locking solution in inoculated peritoneal catheters in vitro; format: cell-based; details: S. epidermidis 10^8 CFU; 0.1 % in normal saline; 12 hours in catheter, 24 hour incubation
[5] = test system: S. epidermidis; test: In vivo gel treatment of inoculated peritoneal catheter exit sites; parameters: species or system white New Zealand rabbits; details: rabbits, 0.1% gel twice daily, day 6
[6] = test system: Candida sp., including strains of C. krusei and C. glabrata; test: Activity against Candida sp.; format: cell-based
[7] = test system: Staphylococcus aureus (ATCC29213); test: S. aureus viability by colony forming units; format: cell-based; details: 10^−15 to 10^−4M, 2 hours at 37° C.
Protocol: Staphylococcus aureus (ATCC29213) was obtained from the collection of the Department of Microbiology, Ospedale Maggiore di Milano. S. aureus (1×10^6/ml in HBSS) was incubated in the presence or absence of α-MSH [1-13] (SEQ ID NO: 6), α-MSH [11-13] (SEQ. ID NO. 1) or the KPV dimer (SEQ ID NO: 4) at concentrations in the range of 10^−15 to 10^−4M for 2 hours at 37° C. S. aureus were then washed in cold distilled water and diluted with HBSS to a concentration of 100 organisms/ml. One ml aliquots were dispensed on blood agar plates and incubated for 24 hours at 37° C. Organism viability was estimated from the number of colony forming units.

[8] = test system: Candida albicans (ATCC 10231); test: Broth dilution turbidity test of growth inhibition; format: cell-based; details: turbidity after 16-20 hours at 35±2° C.
Protocol: These organisms were subcultured onto blood agar plates and incubated for 16-24 hours at 35±2° C. An inoculated needle or loop was touched to each of four or five well isolated colonies of the same morphological type, and the inoculum inoculated into 5 mL of MHB.
The broth cultures were then allowed to incubate at 35±2° C. until turbidity appeared (usually 2 to 5 hours). […] This turbidity is half the density of a McFarland number one standard and is often referred to as McFarland 0.5 standard (approx. 1.5×10^8 CFU/mL). This turbidity standard was agitated on a vortex mixer immediately before use. Sealed tubes were stored in the dark at room temperature and replaced if the inocula are shown (by count) to be aberrant.
The broth culture was further diluted to 1:200 in MHB broth (to obtain a final concentration of 10^5 to 10^6 CFU/mL). To determine the initial concentration of the organism in the above solution, serial dilutions were performed 1:10 in MHB four times to achieve a final dilution of 10^−4. Aliquots 1.0 mL from each of the dilutions were placed in duplicate into sterile petri dishes. Approximately 15 to 20 mL of tempered (45±2° C.) MCTA agar media was added. The plates were incubated overnight at 35±2° C. for 16-20 hours. Following the incubation period, the colonies were counted. […]

[9] = test system: Staphylococcus aureus; test: In vivo locking solution study in implanted peritoneal catheters; parameters: species or system New Zealand white rabbits; details: rabbits, S. aureus 10^8 CFU; 0.1 % in saline locking solution; 12 hours, cultured 24 hr
[10] = test system: Staphylococcus aureus; test: Saline locking solution in inoculated peritoneal catheters in vitro; format: cell-based; details: S. aureus 10^8 CFU; 0.1 % in normal saline; 12 hours in catheter, 24 hour incubation
[11] = test system: Staphylococcus epidermidis; test: In vivo locking solution study in implanted peritoneal catheters; parameters: species or system New Zealand white rabbits; details: rabbits, S. epidermidis 10^8 CFU; 0.1 % in saline locking solution; 12 hours, cultured 24 hr

**Q.** For `CC(=O)N[C@@H](CSSC[C@H](NC(C)=O)C(=O)N[C@@H](CCCCN)C(=O)N1CCC[C@H]1C(=O)N[C@H](C(N)=O)C(C)C)C(=O)N[C@@H](CCCCN)C(=O)N1CCC[C@H]1C(=O)N[C@H](C(N)=O)C(C)C` [KPV dimer, Val-Pro-Lys-AcCys-s-s-CysAc-Lys-Pro-Val] (I: Ac-CKPV-NH2 / II: Ac-CKPV-NH2; disulfide I:1-II:1), which “C. albicans colony formation (CFU)” value [1] is on record?
**A.** Its value is “inhibited C. albicans colony formation”.

**Q.** What about the “growth of bacteria on blood agar plates” value [2] of the same compound?
**A.** The value was “inhibits growth”.

**Q.** And the “effectiveness against Gram negative bacteria” value [3]?
**A.** The value was “effective against Gram negative bacteria”.

**Q.** And the “bacterial growth on blood agar plates from catheter fluid” value [4]?
**A.** The value was “no growth”.

**Q.** What about the “bacterial colonies cultured from swabs of catheter exit sites” value [5] of the same compound?
**A.** Its value is “no bacterial colonies were cultured”.

**Q.** And the antimycotic activity [6]?
**A.** The antimycotic activity was “important antimycotic activities”.

**Q.** What about the “S. aureus colony formation (CFU)” value [7] of the same compound?
**A.** Its value is “inhibited S. aureus colony formation”.

**Q.** And the “minimal effective concentration that completely inhibited growth” value [8]?
**A.** The value was 10^−3 M.

**Q.** And the “colonies developed on plates from catheter aliquots” value [9]?
**A.** The value was “No colonies; also recorded: complete inhibition”.

**Q.** And the “bacterial growth on blood agar plates from catheter fluid” value [10]?
**A.** Its value is “no growth”.

**Q.** What about the “colonies developed on plates from catheter aliquots” value [11] of the same compound?
**A.** Its value is “Seven colonies; also recorded: major inhibition”.
